{"source": "patent US20240101692A1", "binders": {"B1": {"name": "104 (antibody, V domains shown)", "VH": "EFQLQQSGPELVKPGASVKISCKASGYSFTDYNMSWVKQSNGKSLEWIGIISPYYGTTTYNQNFKGKATLTVDQSSSTAYMHLNSLTSEDSAVYYCARNYGGNLDYYSMDYWGQGTSVTVSS", "VL": "SIVMTQTPNFLLVSAGDRVTMTCKASQTVSNDVGWYQQKPGQSPKLLIYYASNRYTGVPDRFTGSGYGTDFTFTITTVQAEDLAVYFCQQDSSFPLTFGAGTKLELK"}}, "target": "Flag-ACRP-mAPRIL A88 (mouse)", "test": "Flag-ACRP-mAPRIL A88 preincubated with antibody, flow cytometry on HEK 293 wild-type cells", "note": "Results are given in words; binding and its absence hold for the method and conditions named. A result given as binding can be weak or reduced; the word gives no strength.", "data": [{"binder": "B1", "values": [{"measurement": "binding", "result": "binds"}]}]}
